US20230270804A1, “ANTI-HYPERCHOLESTEROLEMIA COMPOSITION AND A METHOD OF MANUFACTURING THE SAME” (NBI BIOSCIENCES PRIVATE LIMITED, priority 2020, published 2023)
Like-named read-outs stand apart in the source and are kept apart here.

Columns and labels:
[1] = Prophylactic study: hematological parameters; format: in vivo, Wistar strain albino rats; details: HFD+normal diet
Experimental: (§1) Wistar strain albino rats of body weight ranging from 190-225 g were selected for the present study. The temperature and humidity were kept at optimum (22+2° C.; 40-70% and animals were exposed to natural chronological day night cycles. The experiments were carried out in conformity with the Institutional Animal Ethics Committee.
(§2) The 6 groups were as follows: • 1. Normal Control • 2.
(§3) 1.5-2 ml blood sample was taken from retino-orbital chamber in vials for biochemical estimations at every 15 days. Investigations performed included detailed Total Cholesterol—TC (mg/dl), Triglyceride—TG (mg/dl), High Density Lipoprotein—HDL-C (mg/dl), Low Density Lipoprotein—LDL-C (mg/dl), Very Low-Density Lipoprotein—VLDL (mg/dl), WBC (10^3/u1), RBC (10^6/u1), Hb (g/dl), PCV (%), Reticulocyte (%), Platelet count 10^5/mm^3, Clotting time (Sec), Neutrophils, Lymphocyte, Monocyte and Eosinophil. The estimations were done with Ecoline kits from Erba Mannheim, ERBA diagnostics Mannheml, Germany using Semi Autoanalyzer RX50 of MicroLabs Instruments and COUNCELL21 of Tulip Diagnostics Pvt. Ltd. Lipid peroxidation (Plasma & Liver), HMG Co-Reductase, Creatine phosphokinase (CPK), Lactate dehydrogenase (LDH), SGOT and SGPT were estimated at the end of both the studies using the kits.

[2] = test system: Lipid peroxidation (Plasma & Liver); assay: Prophylactic study: lipid peroxidation (MDA, plasma and liver); format: in vivo, Wistar strain albino rats; details: HFD+normal diet, after sacrifice
Experimental: as §3

[3] = Prophylactic study: HbA1c / blood glucose level; format: in vivo, Wistar strain albino rats; details: HFD+normal diet, after sacrifice
From the text: as §2

[4] = Prophylactic study: organ weights after sacrifice; format: in vivo, Wistar strain albino rats; details: HFD+normal diet
From the text: as §2

[5] = Therapeutic study (60 days treatment after 90 days HFD): body weight; format: in vivo, Wistar strain albino rats; details: HFD discontinued, day 15; in g
Experimental: as §1, §2

[6] = Therapeutic study: hematological parameters; format: in vivo, Wistar strain albino rats; details: HFD continued
Experimental: as §1, §2, §3

[7] = test system: Lipid peroxidation (Plasma & Liver); assay: Therapeutic study: lipid peroxidation (plasma and liver LPO); format: in vivo, Wistar strain albino rats; details: for MDA Liver / MDA Plasma: after necropsy
Experimental: as §3

[8] = test system: Creatine phosphokinase (CPK), Lactate dehydrogenase (LDH), SGOT and SGPT; assay: Therapeutic study: CPK, LDH, SGOT, SGPT; format: in vivo, Wistar strain albino rats; details: HFD Discontinued
Experimental: as §3

[9] = Experimental: The prophylactic study which lasted 90 days used 6 rats per group. […] The 6 groups were as follows: • 1. Normal Control • 2. High Fat Diet (HFD) 1 ml 1/d+Normal Diet • 3. High Fat Diet (HFD)+Normal Diet+the composition of the present invention (OD) • 4, High Fat Diet (HFD)+Normal Diet+the composition of the present invention (BD) • 5. […] The body weights were recorded to the nearest gram (g) with proper tare to 0.0000 with the subject at steady state on the weighing machine. The same weighing machine was used for all the subjects. The machine was tested with a known set of weights for any error.
The long-term rise in the electrolyte such as Na and are associated with blood pressure disorders impacting the heart.

[10] = Therapeutic study: organ body weight after necropsy; format: in vivo, Wistar strain albino rats
From the text: as §2

SMILES: CC(C)c1c(C(=O)Nc2ccccc2)c(-c2ccccc2)c(-c2ccc(F)cc2)n1CC[C@@H](O)C[C@@H](O)CC(=O)O [Statin, Atorvastatin]
- Hb ([1]; day 15): 09.44 ± 1.19 g/dL
- Hb ([1]; day 30): 11.9 ± 1.10 g/dL
- PCV ([1]; day 30): 41.40 ± 1.15%
- PCV ([1]; day 75): 41.40 ± 0.37%
- PCV ([1]; day 90): 41.45 ± 0.29%
- MDA Liver [2]: 80.60 ± 0.90 nmol/g tissue
- MDA Plasma [2]: 35.10 ± 1.55 nmol/mL
- HbA1c [3]: 3.72 ± 0.16
- Brain weight [4]: 1.30 ± 0.05 g/100 g bd · wt
- Average Body Weight [5]: 268.00 ± 8.89
- WBC ([6]; day 0): 8.45 ± 0.39 103/μl
- Reticulocyte ([6]; day 15): 1.34 ± 0.03%
- Reticulocyte ([6]; day 60): 1.32 ± 0.02%
- MDA Liver ([7]; HFD Continued): 84.53 ± 5.09 nmol/g tissue
- MDA Plasma ([7]; HFD Continued): 35.84 ± 0.97 nmol/mL
- MDA Liver ([7]; HFD Discontinued): 82.65 ± 3.76 nmol/g tissue
- MDA Plasma ([7]; HFD Discontinued): 35.80 ± 1.58 nmol/mL
- Liver LPO reduced ([7]; therapeutic study): 11%
- Creatine phosphokinase [8]: 1.32 ± 0.08
- HbA1c ([9]; HFD Continued): 3.67 ± 0.18
- HbA1c ([9]; HFD Discontinued): 4.15 ± 0.16
- vitamin D value in the plasma ([9]; rat, in vivo): 35 IU
- Brain (organ body weight after necropsy) ([10]; HFD Continued): 3.51 ± 0.12 g/100 g bd. wt
- Heart (organ body weight after necropsy) ([10]; HFD Continued): 1.34 ± 0.02 g/100 g bd. wt
- Brain (organ body weight after necropsy) ([10]; HFD Discontinued): 3.37 ± 0.05 g/100 g bd. wt
- Heart (organ body weight after necropsy) ([10]; HFD Discontinued): 1.32 ± 0.05 g/100 g bd. wt
